Values from PubChem BioAssay AID1259299 (Sanger Institute, 2017)
Here is a random part of 794 deposited reagents. 9 of all reagents (1.1%) count as active. 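Calls rest on knock-down alone; synergy scores play no part in calls, and no gene passed the synergy cut.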 Further read-outs or replicates are left out here. No sequences are given here. Not stated in the record: the amount of reagent, the time to read-out.

Test: 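Kinases and colorectal mutated genes needed by colorectal cancer cells, with or without drugs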 (primary screen)
System: human CAR1 colorectal cancer cells
Reagent: siRNA pool against human genes
Conditions: anchor drug BYL719 1 µM, cetuximab 5 µg/ml or trametinib 10 nM, or DMSO vehicle alone; exposure length not given
Measured: 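Cell viability as fraction of non-targeting siRNA wells, mean of replicates, with robust z-score and a synergy score for each of three drugs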
Reading the numbers: viability robust z-score, knock-down alone: higher = more viable cells
Call rule: 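a gene is called essential if its knock-down-alone viability z-score drops under -3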
Meaning of the calls: active = essential (knock-down alone); inactive = no change

PTPN11 → viability robust z-score, knock-down alone = 0.789; outcome = inactive
STK39 → viability robust z-score, knock-down alone = -1.21; outcome = inactive
AXIN2 → viability robust z-score, knock-down alone = 0.296; outcome = inactive
STK38L → viability robust z-score, knock-down alone = -1.23; outcome = inactive
ADPGK → viability robust z-score, knock-down alone = -0.887; outcome = inactive
DLG1 → viability robust z-score, knock-down alone = 0.789; outcome = inactive
PIK3C2B → viability robust z-score, knock-down alone = 0.341; outcome = inactive
IP6K1 → viability robust z-score, knock-down alone = 0.789; outcome = inactive
PRKCI → viability robust z-score, knock-down alone = 0.67; outcome = inactive
DYRK4 → viability robust z-score, knock-down alone = -1.74; outcome = inactive
MVK → viability robust z-score, knock-down alone = 0.789; outcome = inactive
PIK3C2A → viability robust z-score, knock-down alone = -1.76; outcome = inactive
PRAG1 → viability robust z-score, knock-down alone = -1.38; outcome = inactive
BRAF → viability robust z-score, knock-down alone = -3.27; outcome = active
IP6K2 → viability robust z-score, knock-down alone = -0.718; outcome = inactive
SRC → viability robust z-score, knock-down alone = 0.789; outcome = inactive
SRPK3 → viability robust z-score, knock-down alone = 0.00205; outcome = inactive

Ordered by “viability robust z-score, knock-down alone” (high to low): 5 of the entries above.
PTPN11 → viability robust z-score, knock-down alone = 0.789; outcome = inactive
AXIN2 → viability robust z-score, knock-down alone = 0.296; outcome = inactive
ADPGK → viability robust z-score, knock-down alone = -0.887; outcome = inactive
STK39 → viability robust z-score, knock-down alone = -1.21; outcome = inactive
STK38L → viability robust z-score, knock-down alone = -1.23; outcome = inactive

The list goes on:
NRBP1 → viability robust z-score, knock-down alone = -0.558; outcome = inactive
TRIB3 → viability robust z-score, knock-down alone = 0.459; outcome = inactive
PAPSS2 → viability robust z-score, knock-down alone = 0.203; outcome = inactive
PHKG2 → viability robust z-score, knock-down alone = 0.789; outcome = inactive
MAPK3 → viability robust z-score, knock-down alone = -0.87; outcome = inactive
PFKP → viability robust z-score, knock-down alone = 0.789; outcome = inactive
MAP4K1 → viability robust z-score, knock-down alone = -1.26; outcome = inactive
PRKCQ → viability robust z-score, knock-down alone = 0.505; outcome = inactive
PBK → viability robust z-score, knock-down alone = 0.41; outcome = inactive
FCSK → viability robust z-score, knock-down alone = 0.789; outcome = inactive
HCK → viability robust z-score, knock-down alone = 0.789; outcome = inactive
DGKK → viability robust z-score, knock-down alone = 0.789; outcome = inactive
ITPKC → viability robust z-score, knock-down alone = 0.789; outcome = inactive
CKM → viability robust z-score, knock-down alone = 0.575; outcome = inactive
PIP4K2A → viability robust z-score, knock-down alone = 0.789; outcome = inactive
STK25 → viability robust z-score, knock-down alone = -1.12; outcome = inactive
FGFR1 → viability robust z-score, knock-down alone = -0.553; outcome = inactive
AGK → viability robust z-score, knock-down alone = 0.789; outcome = inactive
PI4KB → viability robust z-score, knock-down alone = 0.657; outcome = inactive
